{"sequences": {"note": "By UniProt entry, the sequences of proteins in these tests, tags left out.", "UniProt Q0JBA9, entry or part of it": "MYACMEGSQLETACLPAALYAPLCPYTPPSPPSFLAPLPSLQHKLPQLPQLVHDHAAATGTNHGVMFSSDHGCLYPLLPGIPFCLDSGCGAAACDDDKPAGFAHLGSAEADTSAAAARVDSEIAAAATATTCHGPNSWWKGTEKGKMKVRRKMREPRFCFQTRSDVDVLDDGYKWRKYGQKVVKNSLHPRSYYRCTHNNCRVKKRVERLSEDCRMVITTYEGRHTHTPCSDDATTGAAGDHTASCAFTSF"}, "source": "paper PMC7819943", "about": "“Rice protein-binding microarrays: a tool to detect cis-acting elements near promoter regions in rice”", "note": "The list shows a part of the results.", "data": [{"biological_target": "OsWRKY34 (Oryza sativa, UniProt Q0JBA9 1-250)", "assay": "protein-binding microarray (RPBM); PBS, 2% BSA, 51.3 ng/ul salmon testes DNA, 50 uM zinc acetate, 200 nM TF, 25 C, 1 h; high values mean tight binding", "settings": "protein: recombinant; tags: N-terminal polyhistidine and DsRed monomer fusion (pET32a); label: CyDye5-dUTP incorporated in the synthesized complementary strand; 3' TTTTT single-stranded linker to array surface; dsDNA, one strand shown", "in_short": "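Transcription factors were each fused at the N-terminus to a polyhistidine tag plus DsRed and expressed in E. coli BL21-CodonPlus before Ni–NTA purification. Binding to a double-stranded custom Agilent array was carried out with 200 nM protein at 25 °C for 1 h in PBS, 2% BSA, salmon testes DNA and 50 µM zinc acetate. The binding signal is per-feature fluorescence intensity, in arbitrary units, on an Axon 4000B scanner.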", "values": [{"sequence": "GAGATGAATCTTTTAAGCCTAATTGCACCATCATTTAATACGGAGTCACCTAGTGCAG", "binding signal": "8360 fluorescence intensity (a.u.)"}, {"sequence": "ACAATACCTGCGCTTTCCATCCTATCATCCTATCCCCGACCGGAGTCACCTAGTGCAG", "binding signal": "11300 fluorescence intensity (a.u.)"}, {"sequence": "TGTTTTGGTTTAGACTTTTCGACTTATAAGTTGTCTTATACGGAGTCACCTAGTGCAG", "binding signal": "8500 fluorescence intensity (a.u.)"}, {"sequence": "TACTATCACATATCCGGATTCATCATTAATTTCTGTAGCTCGGAGTCACCTAGTGCAG", "binding signal": "10400 fluorescence intensity (a.u.)"}, {"sequence": "CGCCACGGGTGCCCGCGTCATCCCATCCCCTCGCGCGTCGCGGAGTCACCTAGTGCAG", "binding signal": "9250 fluorescence intensity (a.u.)"}, {"sequence": "TCTGCTGCCGCTCACTTAACGAATCGCATGCACCTGATCACGGAGTCACCTAGTGCAG", "binding signal": "8340 fluorescence intensity (a.u.)"}, {"sequence": "TGGTCGGGTGTTTTTGTGATTGATGGTTTTGGTAGACGGGCGGAGTCACCTAGTGCAG", "binding signal": "11200 fluorescence intensity (a.u.)"}, {"sequence": "GACCAAGACCCACGACCTCGCCTTCGCGACGCGGCCCATCCGGAGTCACCTAGTGCAG", "binding signal": "8220 fluorescence intensity (a.u.)"}, {"sequence": "CCTCCGGATCCTCGGCCCCGTCTTCTCCGACTCCTCCAGCCGGAGTCACCTAGTGCAG", "binding signal": "8320 fluorescence intensity (a.u.)"}, {"sequence": "TTCACGTGTGTTTTGTGTAGTTTTCTACCAGTTTGTTGAACGGAGTCACCTAGTGCAG", "binding signal": "8470 fluorescence intensity (a.u.)"}, {"sequence": "CCGCCTCCGCCGTGCGACCTCCGCATTCTCCCGCGCCGCGCGGAGTCACCTAGTGCAG", "binding signal": "8260 fluorescence intensity (a.u.)"}, {"sequence": "CATATGGTGTCTTGTAAATTTCCTTTTCCACGTACTAACACGGAGTCACCTAGTGCAG", "binding signal": "12400 fluorescence intensity (a.u.)"}, {"sequence": "CCCGTCGCCTTTAACTCCATCCATCGCGTCGCCTTCCCTTCGGAGTCACCTAGTGCAG", "binding signal": "8510 fluorescence intensity (a.u.)"}, {"sequence": "TTGTGTGGTTTTGTAATTTGATTCTATTCCTAAGTTGAGACGGAGTCACCTAGTGCAG", "binding signal": "8100 fluorescence intensity (a.u.)"}, {"sequence": "CAGCGAGCGCACACCCAACAAGATTTGACTAATTGCTCGCCGGAGTCACCTAGTGCAG", "binding signal": "8440 fluorescence intensity (a.u.)"}, {"sequence": "TACATTTTGAAGGTGGGAGGGTAGGATAGTAATTTCGCATCGGAGTCACCTAGTGCAG", "binding signal": "9380 fluorescence intensity (a.u.)"}, {"sequence": "TTTAGCTTAACTTATTACGATTATGGCTGTGTTTAGTTTCCGGAGTCACCTAGTGCAG", "binding signal": "9160 fluorescence intensity (a.u.)"}, {"sequence": "CTCCAATGTTTGCAGTTTGCACTACTGGTACCTATATCTTCGGAGTCACCTAGTGCAG", "binding signal": "10600 fluorescence intensity (a.u.)"}, {"sequence": "TGTTTGTTGACTTTATACTTGAGCAAGTGTAAATCTTTTCCGGAGTCACCTAGTGCAG", "binding signal": "13300 fluorescence intensity (a.u.)"}, {"sequence": "ACTTCCACTTTTGCCGCTGGTAGTATTTCTTTTTGAGACACGGAGTCACCTAGTGCAG", "binding signal": "11100 fluorescence intensity (a.u.)"}, {"sequence": "CTGCTGTGTCGTCGTCGTCGTCGGGAGTGGGGAGCGAGCGCGGAGTCACCTAGTGCAG", "binding signal": "9110 fluorescence intensity (a.u.)"}, {"sequence": "ACTGTTCAATTATTACCCTTACTTTGCTGTGAGATGGGTTCGGAGTCACCTAGTGCAG", "binding signal": "9080 fluorescence intensity (a.u.)"}, {"sequence": "TGGTGGTGGTGGTGGCTGTAGTGTGGAGGTGGTGGGGAGTCGGAGTCACCTAGTGCAG", "binding signal": "16700 fluorescence intensity (a.u.)"}, {"sequence": "CGGTGGAGAGTGGCGGCTGGGTGGCTAGGTGGGTGAGAAACGGAGTCACCTAGTGCAG", "binding signal": "9400 fluorescence intensity (a.u.)"}, {"sequence": "GACACCGGTGCTATGCACCACGAGAGCACGAGAAGAGACGCGGAGTCACCTAGTGCAG", "binding signal": "14500 fluorescence intensity (a.u.)"}, {"sequence": "GCCGCCCGTTTCAGATGTCATATCCCGTGCTAGTGTATACCGGAGTCACCTAGTGCAG", "binding signal": "9470 fluorescence intensity (a.u.)"}, {"sequence": "ACTTCAGGTCATCCCATCTTCCTTTGACTGAATTTGATCACGGAGTCACCTAGTGCAG", "binding signal": "10000 fluorescence intensity (a.u.)"}, {"sequence": "CCTATGTATTTTCTTCCGCACATCTTGCACCAGCCGGTCACGGAGTCACCTAGTGCAG", "binding signal": "8880 fluorescence intensity (a.u.)"}, {"sequence": "CTTGTGGCTTGTGCAATTCTGTTTCATCGAGTTTGTTAACCGGAGTCACCTAGTGCAG", "binding signal": "8830 fluorescence intensity (a.u.)"}, {"sequence": "TGGACACCTATACCTCTGGTATTCCCTTGCGTTTTGATCGCGGAGTCACCTAGTGCAG", "binding signal": "8110 fluorescence intensity (a.u.)"}, {"sequence": "TGTACGGTTTTTCACGGTTACCGCGCGGTAACCGTGCTTACGGAGTCACCTAGTGCAG", "binding signal": "8410 fluorescence intensity (a.u.)"}, {"sequence": "TGTTTATCATTTTGCTGGATTCTGTTCATACTTTTGCTTTCGGAGTCACCTAGTGCAG", "binding signal": "10300 fluorescence intensity (a.u.)"}, {"sequence": "GATTTGTATTGGTTTTAATAGTAGGGGAATTTCTATACCTCGGAGTCACCTAGTGCAG", "binding signal": "8140 fluorescence intensity (a.u.)"}, {"sequence": "TGACTCCCTCAGCGGTTTTGGATGGCGGTTTTGCTGATGTCGGAGTCACCTAGTGCAG", "binding signal": "10200 fluorescence intensity (a.u.)"}, {"sequence": "TCTCTCGTCGGCTCGTCGCCGGCGCGCCACCTCCGCCGCCCGGAGTCACCTAGTGCAG", "binding signal": "9020 fluorescence intensity (a.u.)"}, {"sequence": "CATCCATAGTTCTCTCCGTTCTCCAGCGACCACTGTTCCACGGAGTCACCTAGTGCAG", "binding signal": "10500 fluorescence intensity (a.u.)"}, {"sequence": "GCTTCTTCCATCTGCTCTTTTGTTGCGCCCTGATTCTGCACGGAGTCACCTAGTGCAG", "binding signal": "10100 fluorescence intensity (a.u.)"}, {"sequence": "CCCGTGTTCTTGTACCAAACCTCGACGCGAACGTCCTCGACGGAGTCACCTAGTGCAG", "binding signal": "8640 fluorescence intensity (a.u.)"}, {"sequence": "ATCCATCCATCCATCTGCCGCAAATCTCCTCGTCGTTTCGCGGAGTCACCTAGTGCAG", "binding signal": "8580 fluorescence intensity (a.u.)"}, {"sequence": "CTCTCTTTTTAACTGCTGTTCGTGTTCTTCTCTGCCGCCACGGAGTCACCTAGTGCAG", "binding signal": "8590 fluorescence intensity (a.u.)"}, {"sequence": "AAAAGCCCAGCAACCACCACGAAACCCACGCGAAACACACCGGAGTCACCTAGTGCAG", "binding signal": "8230 fluorescence intensity (a.u.)"}, {"sequence": "CACAACAAGCGATACAACCTACCACTGCATCATAACACCACGGAGTCACCTAGTGCAG", "binding signal": "8910 fluorescence intensity (a.u.)"}]}]}
